One assay relates to HMC-1-8. Put plainly: Antiproliferation assay (Assay 7), HMC-1-8. The conditions noted are these: read-out: Antiproli HMC-1-8 [M] IC50, CellTiter-Glo, 72 hours, several values per example. The protocol: (§1) Assessment of the Anti-Proliferative Effect of Compounds in Different Cell Lines
(§2) The impact of compounds on the proliferation of different cell lines was assessed using the CellTiter-Glo® Luminescent Cell Viability reagent from Promega (G7573).
(§3) The different cell lines were plated in culture medium (RPMI 1640 [Biochrom; #FG 1215] supplemented with 10% Fetal Calf Serum [Biochrom; #S 0415]) at a density of 3,300 cells (for suspension cells) or 800 cells (for adherent cells) in 30 μl/well in a sterile, solid black, flat bottom, polystyrene, TC-treated 384-well microplate (Corning #3571) using Multidrop Combi Reagent Dispenser. In parallel, cells were plated in a reference (day 0) plate for time zero determination. […]
(§4) On the next day, cells were treated with compounds (stock solution, 10 mM in DMSO) using the HP D300 Digital Dispenser in a concentration range of 3.3×10e-5 M (33 μM) to 5×10e-9 M (5 nM) in a single-dot curve with at least 16 dilutions and a DMSO concentration of 0.33%. […] The day 0 plate was measured by adding 30 μL/well of CTG solution (CellTiter-Glo® Luminescent Cell Viability reagent, Promega G7573) to time zero wells in the reference plate followed by a 10 minutes incubation and luminescence reading at 0.1 ms. using the PHERAstar FS microplate reader (BMG Labtech).
(§5) After 72 hours incubation, the treated plates were measured in the same way as the day 0 plate mentioned above. […]
(ATP-based viability assays read luminescence as a measure of living cells.)

The test system of the next assay is AMO-1. The assay is described as follows: Antiproliferation assay (Assay 7), AMO-1. The note with it: read-out: Antiproli AMO-1 [M] IC50, CellTiter-Glo, 72 hours, several values per example, tested form: diethylamine salt. The protocol:
as §1, §2, §3, §4, §5

Structures are written as SMILES. The source holds more than one record for some entries. Only these are listed. An entry can have further records. Values that stand side by side read as repeated measurements (runs, samples, wells or individuals).

Usually IC50 stands for the concentration that inhibits the measured activity by half. For the molecule `CCc1c2c(nn1C)CNS(=O)(=O)CCCn1c(C(=O)O)c(CCCOc3cccc4cc(F)ccc34)c3ccc(Cl)c-2c31`, the half-inhibitory concentration (IC50) in the assay with HMC-1-8 was 13 µM and 1.8 µM.

Regarding `CCc1c2c(nn1C)C(CCN1CCOCC1)N(C)S(=O)(=O)CCCn1c(C(=O)O)c(CCCOc3cccc4cc(F)ccc34)c3ccc(Cl)c-2c31` (single isomer, unassigned) [Example 76], in the assay on AMO-1, the IC50 is < 5 nM and 9.6 nM.

Values taken from patent publication US11401278B2, “Macrocyclic indole derivatives” (The Broad Institute, Inc., priority 2017, dated 2022).
